The test deals with L1210 leukemia ip in BDF1 mice, survival T/C. As to the kind of experiment: NCI In Vivo Anticancer Drug Screen. Data for tumor model L1210 Leukemia (intraperitoneal) in B6D2F1 (BDF1) mice. The settings on record: T/C endpoint: mean survival time, higher T/C = longer survival.
The mark [1] stands for this setting: dose: 150.0 mg/kg/injection, schedule: Q01DX009 (ip), vehicle: saline.
Setting [2] is: dose: 300.0 mg/kg/injection, schedule: Q01DX009 (ip), vehicle: saline.
[3] abbreviates: dose: 200.0 mg/kg/injection, schedule: Q01DX001 (ip), vehicle: Klucel (hydroxypropylcellulose) (HPC).
Setting [4] is: dose: 400.0 mg/kg/injection, schedule: Q01DX001 (ip), vehicle: Klucel (hydroxypropylcellulose) (HPC).
[5] abbreviates: dose: 400.0 mg/kg/injection, schedule: Q04DX002 (ip), vehicle: Klucel (hydroxypropylcellulose) (HPC).
[6] abbreviates: dose: 100.0 mg/kg/injection, schedule: Q04DX002 (ip), vehicle: saline with Tween-80.
Where [7] appears, read: dose: 200.0 mg/kg/injection, schedule: Q04DX002 (ip), vehicle: saline with Tween-80.
Setting [8] is: dose: 400.0 mg/kg/injection, schedule: Q04DX002 (ip), vehicle: saline with Tween-80.

The list does not hold the whole screen: it is rich in T/C values a quarter to a half above the control, in often repeated tests (any T/C) and in doses without a T/C. Other doses and runs of a compound stand elsewhere. T/C: endpoint of the treated group in % of that of the vehicle group. Some entries give survivors of the animals treated and no T/C: the source holds a T/C of zero for them, seemingly a mark for toxic or unscored doses. Some survivor counts are full or nearly so, which does not show that the dose was tolerated: the source hardly ever lists a survival T/C far under the control, and the zero likely stands for such cases as well. Counts of survivors are from the toxicity check (mostly the fifth day) where no day follows; animals may have died later. Schedule codes are those of the source, read here as Q, the interval in days (D) or hours (H), X, the number of doses. Some doses were run more than once; the results are listed from low to high. Some molecules as drawn cover several salts, stereoisomers or complexes of the source; a dose is that of the sample tested. Some schedules carry Z or #; the key to these is not given. For survival time, this PubChem deposit counts one and a half times the control or more as active, and values a quarter to a half above the control carry no call in these data; other NCI protocols may use other cut-offs. Counts like (3×) count equal records among those shown. Some T/C values carry the count of animals alive at the toxicity check (mostly the fifth day); where none is given, no animal had died by that day.

For the molecule `CCN(CC)CCNc1ccc(C)c2sc3ccccc3c(=O)c12` (tested in a mixture with another compound), the survivor count reads like this: (dose: 35.0 mg/kg/injection, schedule: Q01DX009 (ip), vehicle: saline) 6 of 6; (dose: 75.0 mg/kg/injection, schedule: Q01DX009 (ip), vehicle: saline) 5 of 6; under setting [1], 6 of 6; (dose: 200.0 mg/kg/injection, schedule: Q01DX009 (ip), vehicle: carboxymethylcellulose (CMC)) 6 of 6; (dose: 200.0 mg/kg/injection, schedule: Q01DX015 (ip), vehicle: saline) 5 of 6; (dose: 300.0 mg/kg/injection, schedule: Q01DX009 (ip), vehicle: carboxymethylcellulose (CMC)) 6 of 6. Further, the survivor count by setting is: under setting [2], 6 of 6; (dose: 300.0 mg/kg/injection, schedule: Q01DX015 (ip), vehicle: saline) 4 of 6; (dose: 600.0 mg/kg/injection, schedule: Q01DX001 (ip), vehicle: saline) 3 of 6. The T/C is 132 % of control (dose: 50.0 mg/kg/injection, schedule: Q01DX009 (ip), vehicle: carboxymethylcellulose (CMC)); 128, 138, 148 % of control (dose: 60.0 mg/kg/injection, schedule: Q01DX015 (ip), vehicle: saline); 148 % of control (dose: 89.0 mg/kg/injection, schedule: Q01DX009 (ip), vehicle: carboxymethylcellulose (CMC)); 125 [4 of 6 alive] and 135 % of control (dose: 89.0 mg/kg/injection, schedule: Q01DX015 (ip), vehicle: carboxymethylcellulose (CMC)); 143 % of control (dose: 89.0 mg/kg/injection, schedule: Q01DX015 (ip), vehicle: saline); 138 % of control (dose: 133.0 mg/kg/injection, schedule: Q01DX015 (ip), vehicle: carboxymethylcellulose (CMC)). Besides, the T/C under setting [1] was 138 % of control; the T/C (dose: 200.0 mg/kg/injection, schedule: Q01DX015 (ip), vehicle: carboxymethylcellulose (CMC)) was 145 % of control; the T/C under setting [2] is 127 % of control [4 of 6 alive].

Regarding `CC1(CCCOc2ccccc2C(=O)NCBr)N=C(N)N=C(N)N1c1ccccc1` (configuration not stated), the survivor count by setting is: under setting [3], 0 of 6; under setting [4], 0 of 6.

For `C[N+]1(C)C2CCCC1CCC2`, the survivor count is recorded as 0 of 3 (dose: 100.0 mg/kg/injection, schedule: Q04DX002 (ip), vehicle: Klucel (hydroxypropylcellulose) (HPC)); 0 of 3 (dose: 200.0 mg/kg/injection, schedule: Q04DX002 (ip), vehicle: Klucel (hydroxypropylcellulose) (HPC)); 0 of 3 under setting [5].

Regarding `Cc1cc(NC(=O)CCc2ccc(N3C(N)=NC(N)=NC3(C)C)cc2)ccc1S(=O)(=O)F`, the T/C (dose: 27.0 mg/kg/injection, schedule: Q## X018 (ip), vehicle: saline) was 126 % of control; the T/C (dose: 41.0 mg/kg/injection, schedule: Q## X018 (ip), vehicle: saline) was 128 % of control; the T/C (dose: 62.0 mg/kg/injection, schedule: Q## X018 (ip), vehicle: saline) is 129 and 148 % of control; the T/C (dose: 62.5 mg/kg/injection, schedule: Q12HX018 (ip), vehicle: acetone) is 125 % of control; the T/C (dose: 64.0 mg/kg/injection, schedule: Q03HX024 (ip), vehicle: other) was 129 % of control; the T/C (dose: 125.0 mg/kg/injection, schedule: Q## X018 (ip), vehicle: saline) is 135 % of control. Also, the survivor count is on record as 0 of 6 (dose: 125.0 mg/kg/injection, schedule: Q12HX018 (ip), vehicle: acetone); 4 of 10 (dose: 128.0 mg/kg/injection, schedule: Q01DX001 (ip), vehicle: other); 0 of 10 (dose: 128.0 mg/kg/injection, schedule: Q01DX009 (ip), vehicle: other); 6 of 10 (dose: 128.0 mg/kg/injection, schedule: Q03HX008 (ip), vehicle: other); 4 of 10 (dose: 128.0 mg/kg/injection, schedule: Q04DX003 (ip), vehicle: other); 0 of 6 under setting [3]. The survivor count runs as follows: (dose: 250.0 mg/kg/injection, schedule: Q12HX018 (ip), vehicle: acetone) 0 of 6; (dose: 250.0 mg/kg/injection, schedule: Q## X018 (ip), vehicle: saline) 3 of 6; (dose: 256.0 mg/kg/injection, schedule: Q01DX001 (ip), vehicle: other) 0 of 10; (dose: 256.0 mg/kg/injection, schedule: Q01DX009 (ip), vehicle: other) 0 of 10; (dose: 256.0 mg/kg/injection, schedule: Q04DX003 (ip), vehicle: other) 3 of 10; under setting [4], 0 of 6. Further, the survivor count (dose: 500.0 mg/kg/injection, schedule: Q## X018 (ip), vehicle: saline) is listed as 0 of 6; the survivor count (dose: 512.0 mg/kg/injection, schedule: Q01DX001 (ip), vehicle: other) was 0 of 10; the survivor count (dose: 512.0 mg/kg/injection, schedule: Q04DX003 (ip), vehicle: other) is listed as 0 of 10; the survivor count (dose: 1024.0 mg/kg/injection, schedule: Q01DX001 (ip), vehicle: other) was 0 of 10.

For `C=C(C)C(=O)O[C@H]1CC2=C[C@@H](C[C@@]3(C)O[C@@H]3[C@H]3OC(=O)C(=C)[C@@H]31)OC2=O`, the T/C (dose: 2.5 mg/kg/injection, schedule: Q01DX Z (ip), vehicle: saline) was 128 % of control.

For `CN1CCN(C(=O)CCCCCCCCC(Br)CBr)CC1` (configuration not stated), the survivor count is reported as 0 of 6 (dose: 30.0 mg/kg/injection, schedule: Q01DX001 (ip), vehicle: saline) and 0 of 6 (dose: 60.0 mg/kg/injection, schedule: Q01DX001 (ip), vehicle: saline).

In the case of `O=S(=O)(F)/C=C\c1ccccc1`, the survivor count is, setting by setting: (dose: 50.0 mg/kg/injection, schedule: Q01DX009 (ip), vehicle: acetone) 6 of 6; (dose: 100.0 mg/kg/injection, schedule: Q01DX009 (ip), vehicle: acetone) 6 of 6; (dose: 400.0 mg/kg/injection, schedule: Q01DX001 (ip), vehicle: acetone) 3 of 6.

In the case of `CCOC(=O)c1c(-c2ccc([N+](=O)[O-])cc2)c(/C=N\O)n(-c2ccccc2)c1C`, the survivor count under setting [5] is recorded as 3 of 3.

As to `Cc1cc(OC(=O)Nc2c(C)cccc2C)cc(C)c1Cl`, the survivor count (dose: 100.0 mg/kg/injection, schedule: Q01DX001 (ip), vehicle: saline with Tween-80) is listed as 6 of 6; the survivor count under setting [6] is 3 of 3 and 6 of 6; the survivor count (dose: 200.0 mg/kg/injection, schedule: Q01DX009 (ip), vehicle: saline with Tween-80) is given as 2 of 3; the survivor count under setting [7] was 6 of 6; the survivor count (dose: 400.0 mg/kg/injection, schedule: Q01DX009 (ip), vehicle: saline with Tween-80) is listed as 3 of 3; the survivor count under setting [8] is on record as 3 of 3. In addition, the T/C reads like this: (dose: 100.0 mg/kg/injection, schedule: Q01DX009 (ip), vehicle: saline with Tween-80) 92 (2×), 93, 100 % of control; under setting [6], 90 and 91 % of control; under setting [7], 86 and 100 % of control (2×); under setting [8], 87, 92, 93 % of control.
